In publication PMC12320228:
Results are given in words; binding and its absence hold for the method and conditions named. Binding seen in cells or lysates may run through a third protein. Some entries that bind do so weakly or less than the wild type.

Target: T1, Recombinant undercarboxylated osteocalcin (ucOCN) (UniProt P86546)
T1 sequence: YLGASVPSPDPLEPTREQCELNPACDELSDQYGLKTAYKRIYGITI
Experiment: co-IP; mouse primary chondrocytes treated with 5 ng/mL recombinant ucOCN for 4 hours; lysed in IP-lysis buffer (20 mM Tris-HCl pH 7.4, 0.15 M NaCl, 1 mM EDTA, 1 mM EGTA, 1% Triton X-100); precipitated with anti-OCN antibody or IgG control overnight at 4°C, agarose A/G; western blotting

B1: G protein-coupled receptor class C group 6 member A (GPRC6A) (receptor, UniProt Q8K4Z6 21-928)
chain: CHTPDDFVAITSPGHIMIGGLFAIHEKMLSSDDHPRRPQIQKCAGFEISVFLQTLAMIHSIEMINNSTLLSGVKLGYEIYDTCTEVTAAMAATLRFLSKFNCSRETVVFQCDYSSYMPRVKAVIGAGYSETSIAVSRMLNLQLMPQVSYESTAEILSDKIRFPSFLRTVPSDFYQTKAMAHLIRQSGWNWIGAITTDDDYGRLALNTFAIQAAENNVCIAFKEVLPAFLSDNTIEVRINQTLEKIIAEAQVNVIVVFLRKFHVFNLFTKAIERKISKIWIASDNWSTATKIITIPNVKKLGKVVGFAFRRGNTSSFHSFLQTLHMYPNDNNKPLHEFAMLVSACKYIKDGDLSQCISNYSQATLTYDTTKTIENHLFKRNDFLWHYTEPGLIYSIQLAVFALGHAIRDLCQARDCKKPNAFQPWELLAVLKNVTFTDGRNSFHFDAHGDLNTGYDVVLWKETNGLMTVTKMAEYDLQRDVFITTNQETKHEFRKLKQILSKCSKECSPGQMKKATGSQHSCCYECVSCPENHYSNETDMDHCLLCNNETHWAPVRSTTCFEKEVEYLDWDDSLALLLIALSLLGIAFVLAIGIIFTRNLKTPVVKSSGGLVVCYVMLICHALNFASTGFFIGEPQDFACKTRQTLFGVSFTLCVSCILTKSLKILLAFSFDPKLTMFLKCLYRPVPIVLTCTGIQVVICTLWLVLAAPSVEENISLPRVIILECEEGSALAFGTMLGYITVLAFICFVFAFKGRKLPENYNEAKFLTFGMLIYFIAWITFIPVYTTTFGKYLPAVEIIVILISNYGILCCIFFPKCYIILCKQKTNTKSAFLQMVYNYSAHSVDSLALSHVSLDSTSYDTATTNQSPGNKMTACQNDNHLPAQVLPHTGTAKTIKASKTLRQKRSSSI
With B1 the binding was “binds”.
